In PubChem BioAssay AID504789 (Broad Institute, 2011):
The shares of active, inactive and inconclusive entries below differ from those in the screen. Activity calls are given as the source filed them.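 The calls were made as follows: active = compound whose fitted half-maximal dose lies within ten times its top tested dose in every test run, killing cells; inconclusive = test runs disagree, or a run gives an unclear call; inactive = every test run inactive.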

Assay: HMLE_sh_eGFP viability loss – cell-based, luminescence, dry powder, set 7, counter-screen for breast cancer stem cell project, dose response (AID 504789)
Conditions: CellTiter-Glo luminescence, 72 h; at 19.5 µM (top of the series) unless noted
Procedure, shortened: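 Material: HMLE_sh_eGFP control cell line (HMLE cells with shRNA against eGFP) / Quantity: 2000 cells per well / Buffer or medium: serum-free growth medium / Times: about 70–74 h compound exposure, 37 °C / Signal: ATP luminescence with CellTiter-Glo diluted 1:3 in PBS / Control set: DMSO neutral control and 160 µM puromycin positive control, every plate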

Row | SMILES | activity change, negative = cytotoxicity
1 | Cc1ccnc(NCc2cccc(C(=O)Nc3nc(C)cs3)c2)c1 | inconclusive: -1.92%
2 | COc1cc([C@@H]2c3cc4c(cc3[C@@H](OC3OC5COC(C)OC5C(O)C3O)[C@H]3COC(=O)[C@H]23)OCO4)cc(OC)c1O (stereo partly drawn) | inconclusive: -60.2% [at 16 µM]
3 | CC[C@@H](C(=O)O)C1CC[C@H](C)C([C@@H](C)[C@H](O)[C@H](C)C(=O)[C@H](CC)C2O[C@]3(C=C[C@@H](O)[C@]4(CC[C@@](C)(C5CC[C@](O)(CC)[C@H](C)O5)O4)O3)[C@H](C)C[C@@H]2C)O1 (stereo partly drawn) | inconclusive: -83.2% [at 30 µM]
4 | CC(C)c1ccc(/C=C\C(=O)NC2=NCCS2)cc1 | inactive: -12.1%
5 | O=C(COc1ccc(Cl)cc1Cl)n1ccc(-c2ccc[nH]2)n1 | inactive: 27.2%
6 | CN(C)C(=N)N=C(N)N | inactive: 15.9%
7 | COc1cc(C(C)C)ccc1/C=C/C(=O)NC1=NCCS1 | inactive: 10.3%
8 | c1c[nH]c(-c2ccn[nH]2)c1 | inconclusive: 5.11%
9 | Cc1csc(NC(=O)c2cccc(CNc3ncccc3F)c2)n1 | inconclusive: 0.88%
10 | O=C(COc1ccc(Cl)cc1Cl)N/N=C\c1ccccn1 | inconclusive: -3.91%
11 | Cc1ccnc(OCc2ccc(C(=O)Nc3nc(C)cs3)o2)c1 | inconclusive: -12.8%
12 | COc1cc(OC(C)C)ccc1/C=C/C(=O)NC1=NCCS1 | inactive: 25%
13 | COc1ccc2sc(NC(=O)c3ccc(COc4ccccc4)o3)nc2c1 | inconclusive: 0.344%
14 | Cc1csc(NC(=O)c2ccc(COc3ccncc3)o2)n1 | inconclusive: -62.6%
15 | Cc1cccc(/C=C/C(=O)NC2=NCCS2)c1 | inactive: 23.8%
16 | O=C(/C=C/c1ccc(-c2ccccc2)nc1)NC1=NCCS1 | inconclusive: -19%
17 | O=C(COc1ccc(Cl)cc1Cl)N/N=C/c1ccccn1 | inconclusive: -6.6%
18 | Cc1cccc(OCc2ccc(C(=O)Nc3nc(C)cs3)o2)n1 | inconclusive: -10.6%
